Results are given in words; binding and its absence hold for the method and conditions named. A result given as binding can be weak or reduced; the word gives no strength. Where a sequence is shown, tags or fusion partners need not be part of it.
Target: CD16A (UniProt P08637)
Assay: flow cytometry, anti-His AF647 detection, Jurkat-Lucia-NFAT-CD16A cells

By UniProt entry, the sequences of proteins in these tests, tags left out. Where a name states a change or a piece, a line headed by the entry shows the natural chain unless it says otherwise.
UniProt P08637: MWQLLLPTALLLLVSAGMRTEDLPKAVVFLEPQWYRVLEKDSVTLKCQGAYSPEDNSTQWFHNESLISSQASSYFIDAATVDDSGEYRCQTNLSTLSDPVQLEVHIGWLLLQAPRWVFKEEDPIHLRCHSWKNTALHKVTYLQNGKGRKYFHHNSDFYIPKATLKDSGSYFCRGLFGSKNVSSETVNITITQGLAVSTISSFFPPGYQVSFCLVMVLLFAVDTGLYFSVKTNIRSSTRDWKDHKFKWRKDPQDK

Binder | binding
02-0307-h4-CD16A_His, CLDN18.2-CD16A TandAb (bispecific antibody) QVQLVQSGAEVKKPGESLKVSCKASGYTFTSYYMHWVRQAPGQGLEWMGIINPSGGSTSYAQKFQGRVTMTRDTSTSTVYMELSSLRSEDTAVYYCARGSAYYYDFADYWGQGTLVTVSSGGSGGSGGSDIVMTQSPDSLAVSLGERVTMNCKSSQSLLNSGNQKNYLSWYQQKPGQPPKLLFYWASTRESGVPDRFSGSGSGTDFTLTISSVQAEDVAVYYCQNDYSYPFTFGQGTKLEIKGGSGGSGGSEVQLLESGGGLVQPGGSLRLSCAASGFTFSSYTMSWVRQAPGKGLEWVATIIIGGSYTYYADSVKGRFTISRDNSKNTLYLQMNSLRAEDTAVYYCTRLVKGNAMDYWGQGTLVTVSSGGSGGSGGSSYVLTQPSSVSVAPGQTATISCGGHNIGSKNVHWYQQRPGQSPVLVIYQDNKRPSGIPERFSGSNSGNTATLTISGTQAMDEADYYCQVWDNYSVLFGGGTKLTVLHHHHHH | binds
02-0358-h3-CD16A-His, CLDN18.2-CD16A TandAb (bispecific antibody) QVQLVQSGAEVKKPGESLKVSCKASGYTFTSYYMHWVRQAPGQGLEWMGIINPSGGSTSYAQKFQGRVTMTRDTSTSTVYMELSSLRSEDTAVYYCARGSAYYYDFADYWGQGTLVTVSSGGSGGSGGSDIVMTQSPDSLAVSLGERVTMNCKSSQSLFNSGNQRNYLTWYQQKPGQPPKLLIYWASTRESGVPDRFSGSGSGTDFTLTISSVQAEDVAVYYCQNVYIYPLTFGQGTKLEIKGGSGGSGGSEVQLVESGGGLVQPGGSLRLSCAVSGFTFSSFGMHWVRQAPGKGLEWVAYISSGTTNIYYADSVKGRFTVSRDNAKNSLYLQMNSLRAEDTAVYYCVRSGYYGNSLDYWGQGTLVTVSSGGSGGSGGSSYVLTQPSSVSVAPGQTATISCGGHNIGSKNVHWYQQRPGQSPVLVIYQDNKRPSGIPERFSGSNSGNTATLTISGTQAMDEADYYCQVWDNYSVLFGGGTKLTVLHHHHHH | binds
